± gives the uncertainty stated by the source. Many entries were measured with a wide error.
Assay: self-splicing fitness, log relative to wild type (ln ratio); higher = more splicing; Tetrahymena group I intron in knt gene, E. coli kanamycin selection, DiMSum; sequences stand for … in CUCUCU…GGAGGGAAAAGUUAUCAGGCAUGCACCUGGUAGCUAGUCUUUAAACCAAUAGAUUGCAUCGGUUUAAAAGGCAAGACCGUCAAAUUGCGGGAAAGGGGUCAACAGCCGUUCAGUACCAAGUCUCAGGGGAAACUUUGAGAUGGCCUUGCAAAGGGUAUGGUAAUAAGCUGACGGACAUGGUCCUAACCACGCAGCCAAGUCCUAAGUCAACAGAUCUUCUGUUGAUAUGGAUGCAGUUCACAGACUAAAUGUCGGUCGGGGAAGAUGUAUUCUUCUCAUAAGAUAUAGUCGGACCUCUCCUUAAUGGGAGCUAGCGGAUGAAGUGAUGCAACACUGGAGCCGCUGGGAACUAAUUUGUAUGCGAAAGUAUAUUGAUUAGUUUUGGAGUACUCGUGGUCG
Method in brief: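 Six replicate transformations of E. coli BL21(DE3) with a pET-22b(+) library were grown overnight at 37°C or 30°C. The library randomised all eight P1ex-region intron nucleotides, the intron lying in the knt kanamycin-resistance gene, and plates were LB agar with or without 25 μg/mL kanamycin plus 100 μg/mL carbenicillin, 50 μM IPTG and 0.2% rhamnose. Pooled colonies were amplicon-sequenced on an Illumina HiSeq 2500, and fitness is the DiMSum error-weighted combination of wild-type-normalised replicate fold changes, kanamycin versus none.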

Sequence | self-splicing fitness (ln) (37 °C) | self-splicing fitness (ln) (30 °C)
AGUUAGCAAUAUUACGCUCU | -1.02 ± 0.71 | –
AUGGAGCAAUAUUACGGUGA | -2.86 ± 0.53 | –
GCGGAGCAAUAUUACGGGCA | – | -2.62 ± 0.64
CCGGAGCAAUAUUACGACCA | -1.79 ± 0.52 | -1.44 ± 0.52
GGCGAGCAAUAUUACGUCAC | -2.75 ± 0.6 | –
AGUGAGCAAUAUUACGGAAA | -0.935 ± 0.77 | –
AAUAAGCAAUAUUACGGAGC | -3.06 ± 0.74 | –
GUCCAGCAAUAUUACGAACC | -0.224 ± 0.11 | -1.97 ± 0.093
UUUGAGCAAUAUUACGAACC | -2.9 ± 1.1 | –
CCUGAGCAAUAUUACGGCGC | -3.16 ± 0.52 | –
AGGGAGCAAUAUUACGCGGG | -3.37 ± 0.6 | –
AUACAGCAAUAUUACGAUGG | -2.35 ± 0.23 | -3.04 ± 0.18
CAGGAGCAAUAUUACGAUCU | – | -2.93 ± 0.63
GAAGAGCAAUAUUACGAUCC | -1.12 ± 0.93 | –
CGGUAGCAAUAUUACGGGGC | -2.39 ± 0.34 | -4.13 ± 0.61
ACGGAGCAAUAUUACGAUGU | -2.52 ± 0.27 | -3.19 ± 0.2
UUCAAGCAAUAUUACGGGCA | 0.111 ± 0.1 | -0.666 ± 0.11
UGAGAGCAAUAUUACGAGCA | – | -1.05 ± 0.67
UUCCAGCAAUAUUACGUGAC | -1.89 ± 0.21 | -2.56 ± 0.2
UCGUAGCAAUAUUACGUCUA | -0.978 ± 0.12 | -1.48 ± 0.1
AAGCAGCAAUAUUACGCUCA | -0.0809 ± 0.2 | 0.661 ± 0.12
UGAGAGCAAUAUUACGACUG | -1.27 ± 0.68 | -2.92 ± 0.55
UAUAAGCAAUAUUACGCAAC | -2.87 ± 0.62 | –
UUAGAGCAAUAUUACGCUGC | – | -4.16 ± 1

Sequence | self-splicing fitness (ln) (37 °C) | self-splicing fitness (ln) (30 °C)
CGCAAGCAAUAUUACGUAAU | -2.14 ± 0.17 | -3.89 ± 0.2
GGGGAGCAAUAUUACGUGGG | -3.05 ± 0.74 | –
GUGUAGCAAUAUUACGCGCU | – | -5.43 ± 1
CGGUAGCAAUAUUACGGCAC | -1.99 ± 0.36 | -2.11 ± 0.26
GGGGAGCAAUAUUACGUUGU | – | -3.46 ± 0.53
UGGUAGCAAUAUUACGGGGC | – | -4.42 ± 1
UCUCAGCAAUAUUACGCAGA | -2.84 ± 0.61 | –
CGGGAGCAAUAUUACGGAGA | -2.58 ± 0.76 | –
UCCCAGCAAUAUUACGCUAC | – | -3.76 ± 0.6
AGAGAGCAAUAUUACGAGAC | -3.74 ± 1 | -4.29 ± 1.1
AGAGAGCAAUAUUACGGCCA | -2 ± 0.78 | -3.48 ± 1.1
AGGGAGCAAUAUUACGCGUU | -2.46 ± 0.44 | –
GGGGAGCAAUAUUACGGUGA | -2.61 ± 0.54 | –
UAGCAGCAAUAUUACGAACC | -0.977 ± 0.66 | -2.61 ± 0.66
CUACAGCAAUAUUACGCUUC | – | -4.57 ± 0.51
UUGGAGCAAUAUUACGAGCU | 0.000402 ± 1.2 | –
AGGAAGCAAUAUUACGGGUC | -2.31 ± 0.29 | -3 ± 0.32
AAAGAGCAAUAUUACGUUUU | -1.91 ± 0.12 | -2.46 ± 0.11
UGUUAGCAAUAUUACGCCAC | -1.79 ± 1.2 | –
AGAGAGCAAUAUUACGUCCA | -1.21 ± 0.76 | -3.28 ± 0.74
GGUGAGCAAUAUUACGGAGA | -0.778 ± 0.82 | –
CAUAAGCAAUAUUACGAUAC | – | -4.25 ± 0.52
GGUCAGCAAUAUUACGUAUC | -0.138 ± 0.1 | -0.892 ± 0.078
CGGAAGCAAUAUUACGAGAU | – | -4.14 ± 0.51

Sequence | self-splicing fitness (ln) (37 °C) | self-splicing fitness (ln) (30 °C)
UUUGAGCAAUAUUACGGGUC | – | -4.22 ± 0.52
AGCUAGCAAUAUUACGGUCU | 0.136 ± 0.088 | -0.425 ± 0.068
ACGCAGCAAUAUUACGGUGC | -3.95 ± 0.72 | –
UUGCAGCAAUAUUACGCCAC | -1.1 ± 0.5 | -2.96 ± 0.68
CCCGAGCAAUAUUACGAACU | – | -4 ± 1
AGCUAGCAAUAUUACGCUCU | -1.57 ± 0.24 | -2.24 ± 0.18
GUGUAGCAAUAUUACGGCAC | -0.727 ± 0.77 | –
UAAGAGCAAUAUUACGUUGA | – | -2.94 ± 0.53
AGUGAGCAAUAUUACGAGCC | -1.34 ± 0.87 | –
UCCGAGCAAUAUUACGACUA | -2.21 ± 0.27 | -2.51 ± 0.28
GUUGAGCAAUAUUACGCCCG | -0.708 ± 0.71 | -2.7 ± 0.49
GUGGAGCAAUAUUACGUGUU | -2.24 ± 0.56 | –
GAUGAGCAAUAUUACGUCAA | -3.44 ± 0.37 | -3.32 ± 0.28
UUGAAGCAAUAUUACGCAGU | -1.54 ± 0.32 | -1.2 ± 0.3
CCAAAGCAAUAUUACGGCGG | -2.48 ± 0.16 | -3.8 ± 0.15
GAUGAGCAAUAUUACGAUUC | -1.88 ± 1.2 | –
GGGGAGCAAUAUUACGGCGA | -1.81 ± 0.24 | -2.4 ± 0.26
UUGAAGCAAUAUUACGUAAC | -2.35 ± 0.67 | –
UUCUAGCAAUAUUACGUCAG | -1.75 ± 0.26 | -3.16 ± 0.37
CGGGAGCAAUAUUACGAGCC | -2.39 ± 1.1 | –
CUUGAGCAAUAUUACGAGCU | -2.69 ± 0.76 | –
AGGCAGCAAUAUUACGCCCC | -1.93 ± 0.81 | -2.79 ± 1.2
CCGGAGCAAUAUUACGCCCU | – | -3.8 ± 0.53
CCGCAGCAAUAUUACGCUCC | -1.3 ± 0.75 | -2.24 ± 0.51

Sequence | self-splicing fitness (ln) (37 °C) | self-splicing fitness (ln) (30 °C)
UCGCAGCAAUAUUACGCAAC | – | -4.48 ± 0.52
CGCCAGCAAUAUUACGCUCU | -1.06 ± 0.097 | -1.6 ± 0.081
CUGUAGCAAUAUUACGACCU | -0.0717 ± 0.66 | -2.45 ± 0.72
CCGGAGCAAUAUUACGGAUC | -2.39 ± 1.1 | –
GUCGAGCAAUAUUACGGGCC | -1.06 ± 0.8 | -3.87 ± 0.74
UAUAAGCAAUAUUACGUCCC | -0.835 ± 0.77 | -2.57 ± 0.78
CUAGAGCAAUAUUACGGUCU | – | -5.46 ± 0.71
AGCGAGCAAUAUUACGCGUC | -2.64 ± 0.62 | –
CACUAGCAAUAUUACGCGUG | -3.12 ± 0.25 | -3.99 ± 0.21
AUCUAGCAAUAUUACGAUCU | 0.148 ± 0.15 | -1.03 ± 0.13
GAUAAGCAAUAUUACGAGAU | -2.14 ± 0.21 | -3.66 ± 0.21
UUCGAGCAAUAUUACGCAAC | -3.64 ± 1 | –
CAUGAGCAAUAUUACGCCCA | -2.71 ± 0.76 | –
UGGGAGCAAUAUUACGGUAA | -2.29 ± 1.1 | –
GGGUAGCAAUAUUACGUCAC | -1.43 ± 0.57 | –
CGGAAGCAAUAUUACGAACC | – | -0.987 ± 0.51
CGGAAGCAAUAUUACGAGAC | -3.36 ± 0.6 | -1.38 ± 0.6
CCAGAGCAAUAUUACGCCGU | -3.03 ± 0.53 | –
AGUGAGCAAUAUUACGUGUG | -3.12 ± 0.53 | –
GUUGAGCAAUAUUACGGUUG | -1.38 ± 0.38 | -3.56 ± 0.35
ACGGAGCAAUAUUACGCCCC | – | -0.86 ± 1.4
UUGCAGCAAUAUUACGCUCC | -1.97 ± 0.51 | -2.77 ± 1.1

Full records, quoted from the list. Values in the order: self-splicing fitness (ln) (37 °C) | self-splicing fitness (ln) (30 °C)
GGGUAGCAAUAUUACGUCAC is listed with -1.43 ± 0.57 | –
GGGGAGCAAUAUUACGUUGU is listed with – | -3.46 ± 0.53
UCCGAGCAAUAUUACGACUA is listed with -2.21 ± 0.27 | -2.51 ± 0.28
UUCUAGCAAUAUUACGUCAG is listed with -1.75 ± 0.26 | -3.16 ± 0.37

Reference: the supplement of paper PMC7877785
